This series has as its target T1, Int82N (Enterococcus faecalis) (UniProt Q7BP35).
T1 sequence (looked up): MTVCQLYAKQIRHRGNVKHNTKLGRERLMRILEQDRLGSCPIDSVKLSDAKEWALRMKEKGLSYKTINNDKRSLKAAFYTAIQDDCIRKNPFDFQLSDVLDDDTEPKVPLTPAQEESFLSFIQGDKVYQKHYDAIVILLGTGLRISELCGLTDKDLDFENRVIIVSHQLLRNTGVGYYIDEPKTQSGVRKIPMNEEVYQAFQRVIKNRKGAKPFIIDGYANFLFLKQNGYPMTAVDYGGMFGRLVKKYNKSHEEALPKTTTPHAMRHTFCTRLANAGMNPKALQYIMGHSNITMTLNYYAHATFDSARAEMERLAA
The series can be described thus: EMSA. The settings on record: […] (50 mM HEPES pH 7.5, 250 mM NaCl, 5 mM DTT, 10% glycerol), residues 82-397, protein details: 6xHis-SUMO removed by SenP2, extra N-terminal S81, label: 2AP.

Protein sequences can lack the tags named with them.

Turning to “TGCGATAACCTAAAATTTTTTAGAAAAATTATATGGGATTTTAG / CTAAAATCCCATATAATTTTCCTAAAAAATTTTAGGTTATCGCT [CI5-F]”, the binding result (2-aminopurine (written A) at position 24 of top and 25 of bottom strand, recombinant …) is “binds”.

On to “TGCGATAACCTAAAATTTTATAGCAAAATTATATGGGATTTTAG / CTAAAATCCCATATAATTTTGCTATAAAATTTTAGGTTATCGCT [CI5-IR]”, for which, for the setting “2-aminopurine (written A) at first IR base after crossover on each strand, recombinant protein”, the binding result is “binds”.

For the origin of these results see PMC5871717, “Transposase-DNA Complex Structures Reveal Mechanisms for Conjugative Transposition of Antibiotic Resistance” (Cell, 2018).
